Laboratory results from patent US20240209109A1.
Positions count from the first letter of the chain named. Results are given in words; binding and its absence hold for the method and conditions named. Some binding calls cover weakened binding; strength is not graded here. Blank lines part the entries; values can stand above or below the binder they belong to.

The chains behind the UniProt entries cited, without tags or fusion partners. Where a name states a change or a piece, a line headed by the entry shows the natural chain unless it says otherwise. A line that says so, or that is headed by a name, gives the form on record, which may keep a tag or linker.
cynomolgus CD40-His protein (G7PG38, form named): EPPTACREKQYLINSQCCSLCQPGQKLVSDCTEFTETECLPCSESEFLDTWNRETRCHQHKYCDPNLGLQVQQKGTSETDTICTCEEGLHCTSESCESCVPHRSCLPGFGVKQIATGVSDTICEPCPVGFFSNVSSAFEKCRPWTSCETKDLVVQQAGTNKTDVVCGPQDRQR

Target: cynomolgus CD40-His protein (cynomolgus) (UniProt G7PG38)
Test: ELISA, coated cynomolgus CD40-His

binding: binds
B1: 42p155 chimeric monospecific antibody (antibody, V domains shown)
VH: PSQLVESGGGLVQPGGSLRLSCAASGFAFRSYTMSWVRQAPGKGLEWVSTITHNGAITTYAESAQGRFTISRDNAKNTLYLQMNSLKPEDTAVYYCAQGGGSNYYRESWGQGTQVTVSS

binding: binds
B2: 2p1294 chimeric monospecific antibody (antibody, V domains shown)
VH: B1 VH with P1Q, S2V, A28S, S31R, T50A, T52S, H53D, A61T

binding: binds
B3: 2p834 chimeric monospecific antibody (antibody, V domains shown)
VH: B1 VH with P1Q, S31R, A56S

binding: binds
B4: 42p655 chimeric monospecific antibody (antibody, V domains shown)
VH: B1 VH with P1A, S2V, S31R, T50S, H53D, A56S, Y95H

binding: binds
B5: 3p78 chimeric monospecific antibody (antibody, V domains shown)
VH: B1 VH with S2V, A28T, S31N, T33A

binding: binds
B6: 2p80 chimeric monospecific antibody (antibody, V domains shown)
VH: QLQLVESGGGLVQAGGSLRLSCAASGRIFSSYAMSWFRQAPGKEREFVATIGWIGENTYYADSVKGRFTISRDNAKNTLYLQMNSLKPEDTAVYYCAAGLPANRYYDYWGQGTQVTVSS

binding: binds
B7: 2p931 chimeric monospecific antibody (antibody, V domains shown)
VH: AVQLVESGGGLVQPGGSLRLSCAASGFSFRNYMMNWVRQAPGKGLECLSSITSAGDITSYTESVKGRFTISRDNAKNTLYLQMNSLKPEDTAVYYCAQGGCGNYYRESWGQGTQVTVSS

binding: binds
B8: 2p957 chimeric monospecific antibody (antibody, V domains shown)
VH: B7 VH with A1P, M33I, N35S, C47W, S53N, A54S, D56G, C101S, G102D, E107G

binding: binds
B9: 42p495 chimeric monospecific antibody (antibody, V domains shown)
VH: PVQLVESGGNLVQPGGSLRLSCVAPGFTSRNSAMSWVRQAPGKGLEWVSTIYSGKSNTDYADSVKGRFTISTDNAKNTLYLHMNKLKSEDTAVYYCAKGAASDWYVPRDYWGQGTQVTVSS

binding: binds
B10: 2p1130 chimeric monospecific antibody (antibody, V domains shown)
VH: EVQVVESGGGLVQPGGSLRLTCAASGFSVDDYGIGWFRQAPGREREGVACITPNGLMMNFANTVGSVAGRFSASRDSGENTVSLQMSSLKPEDTAIYFCAHSRDDSCRGSLSDYDDWGQGTQVTVSS

binding: binds
B11: 2p415 chimeric monospecific antibody (antibody, V domains shown)
VH: QLHFVESGGGLVQPGGSLRLSCAASGFTLDHYAMGWFRQAPGKEREGVSCISGGGSTRYADSAKGRFTISRDNAKNTVYLQMNSLTPEDTAVYYCAAARLLSRNCVPRDSGSWGQGTQVTVSS

binding: binds
B12: 2p551 chimeric monospecific antibody (antibody, V domains shown)
VH: B11 VH with H31Y, M34I, A63V, R103T

binding: binds
B13: 2p442 chimeric monospecific antibody (antibody, V domains shown)
VH: B11 VH with L2V, H3Q, F4L, A23V, H31Y, Y32F, M34I, A63V
